The results in this text go back to the supplement of paper PMC4683952.

Structures can show the parent of a compound that is named as a salt. This is one part of the list. Cut-off read from the data, not from the text of the source: active = 2.5 or more and inactive = the rest. Most values lie within the scatter of the assay; repeated measurements hardly agree.

In the test the test system is Lgr5 (MarsCy1-Lgr5-EGFP, U2OS). The experiment in a line: cell-surface Lgr5 expression (SCi1 fluorescence, background-subtracted) relative to WT control (fold of WT control); higher = more Lgr5 at the plasma membrane. The settings on record: U2OS MarsCy1-Lgr5-EGFP stable; treatment time: overnight; library: Prestwick; 20 µM.
Turning to `C[C@]12CC[C@H](O)C[C@H]1CC[C@@H]1[C@@H]2C[C@@H](O)[C@]2(C)[C@@H](C3=CC(=O)OC3)CC[C@]12O` [Digoxigenin], the “cell-surface Lgr5 expression” value is inactive: 0.643.

In the case of `CC(=O)NC1CCSC1=O` (racemic) [N-Acetyl-DL-homocysteine Thiolactone], the “cell-surface Lgr5 expression” value was inactive: 1.65.

As to `CC(Cc1ccccc1)NCCC(c1ccccc1)c1ccccc1` (centres undefined) [Prenylamine lactate], the “cell-surface Lgr5 expression” value was inactive: 2.34.

As to `CNCC(O)c1ccc(O)c(OC)c1` (stereo not drawn) [Metanephrine hydrochloride DL], the “cell-surface Lgr5 expression” value was inactive: 1.2.

Turning to `Clc1ccc(C(OCCN2CCCCC2)c2ccccc2)cc1` (centres undefined) [Cloperastine hydrochloride], the “cell-surface Lgr5 expression” value is inactive: 1.59.

In the case of `COc1cc2c(c(OC)c1OC)-c1ccc(O)c(=O)cc1[C@@H](N)CC2` [Trimethylcolchicinic acid], the “cell-surface Lgr5 expression” value is inactive: 1.62.

For `COc1ccc2c(c1)[nH]c1c(C)nccc12` [Harmine hydrochloride], the “cell-surface Lgr5 expression” value is inactive: 1.

For `CN1[C@@H](C[C@@H](O)c2ccccc2)CCC[C@H]1C[C@H](O)c1ccccc1` [Lobelanidine hydrochloride], the “cell-surface Lgr5 expression” value was inactive: 2.27.

As to `COc1ccc(C[C@H]2NC[C@H](O)[C@H]2OC(C)=O)cc1` [Anisomycin], the “cell-surface Lgr5 expression” value was inactive: -0.248.

In the case of `NCCc1c[nH]c2ccc(O)cc12` [Serotonin hydrochloride], the “cell-surface Lgr5 expression” value was inactive: 2.09.

Regarding `COc1cc([C@@H]2c3cc4c(cc3[C@H](O)[C@H]3COC(=O)[C@H]23)OCO4)cc(OC)c1OC` [Podophyllotoxin], the “cell-surface Lgr5 expression” value is active: 3.24.

Regarding `CC[C@H]1CN2CCc3cc(OC)c(OC)cc3[C@@H]2C[C@@H]1C[C@H]1NCCc2cc(OC)c(OC)cc21` [Emetine dihydrochloride], the “cell-surface Lgr5 expression” value was inactive: 0.51.

Consider `CCC1(c2cccc(O)c2)CCCCN(C)C1` (centres undefined) [Meptazinol hydrochloride], for which the “cell-surface Lgr5 expression” value is inactive: 1.59.

As to `C[C@@H]1CC[C@H]2[C@@H](C)C(=O)O[C@@H]3O[C@@]4(C)CC[C@@H]1[C@]32OO4` [Artemisinin], the “cell-surface Lgr5 expression” value is inactive: 1.87.

For the compound `CS(=N)(=O)CC[C@H](N)C(=O)O` (some centres undefined) [Methionine sulfoximine (L)], the “cell-surface Lgr5 expression” value is inactive: 1.8.

As for `CC[C@H]1[C@@H]2C[C@H]3[C@@H]4N(C)c5ccccc5[C@]45C[C@@H]([C@@H]2[C@H]5O)N3[C@@H]1O` [Ajmaline], the “cell-surface Lgr5 expression” value was inactive: 1.21.

For `CCNC1(c2cccs2)CCCCC1=O` (centres undefined) [Tiletamine hydrochloride], the “cell-surface Lgr5 expression” value is inactive: 1.09.

Take `CCN1C[C@]2(COC)CC[C@H](O)[C@@]34C5C[C@@H]6[C@@H](OC)C[C@](O)(C(CC23)C14)C5[C@H]6OC(C)=O` (some centres undefined) [Condelphine]: the “cell-surface Lgr5 expression” value was inactive: 1.58.

As for `CO[C@]12C[C@@H](COC(=O)c3cncc(Br)c3)CN(C)[C@@H]1Cc1cn(C)c3cccc2c13` [Nicergoline], the “cell-surface Lgr5 expression” value was inactive: 1.21.

As for `COC1=C[C@@H]2C3=C([C@@H]2C1=O)[C@@H](NC(C)=O)CCc1cc(OC)c(OC)c(OC)c13` [Lumicolchicine gamma], the “cell-surface Lgr5 expression” value is inactive: 0.0414.

With `CC(=O)OCC1=C(C(=O)O)N2C(=O)[C@@H](N)[C@H]2SC1` [Cephalosporanic acid, 7-amino], the “cell-surface Lgr5 expression” value is inactive: 1.73.

For `C[C@H]1C(=O)O[C@@H]2CCN3CC=C(COC(=O)[C@](C)(O)[C@]1(C)O)[C@H]23` [Monocrotaline], the “cell-surface Lgr5 expression” value was inactive: 1.53.

In the case of `C[C@@]12N[C@@H](Cc3ccccc31)c1ccccc12` [(-)-MK 801 hydrogen maleate], the “cell-surface Lgr5 expression” value is inactive: 2.28.

For the compound `C[N+]12CCC(CC1)C(OC(=O)C(O)(c1ccccc1)c1ccccc1)C2` (centres undefined) [Clidinium bromide], the “cell-surface Lgr5 expression” value was inactive: 2.34.
